Test results as given in patent US20090029966A1, “COMBINATION THERAPY WITH PARP INHIBITORS” (ABBOTT LABORATORIES, priority 2006, published 2009).
At least one compound was matched to its structure with a doubt left.

Assays:
[1] = system: MDA-MB-231-luc-ln human breast carcinoma; assay: Human breast carcinoma MDA-MB-231-LN-luc intratibial model (BLI); assay type: in vivo, female SCID-C.B17 mice; conditions: TMZ 50 mg/kg/day alone or with ABT-888 25 mg/kg/day; treatment days 28-32 and 48-52
[2] = system: PC3M-Luc human prostate carcinoma; assay: Human prostate carcinoma PC3M-luc intratibial model (BLI); assay type: in vivo, male SCID-C.B17 mice; conditions: compared to the TMZ only group; x-ray of tibias

Structure (SMILES) | efficacy (FIG. 33) [1] | bone integrity [2]
Cn1nnc2c(C(N)=O)ncn2c1=O [TMZ, temozolomide] | did not demonstrate any single agent efficacy | 
O=P(O)(O)C(O)(Cn1ccnc1)P(=O)(O)O [ZA, zoledronic acid] |  | significantly protected the bone integrity
